Data from publication PMC13596719.
Results are given in words; binding and its absence hold for the method and conditions named. Binding seen in cells or lysates may run through a third protein.

Sequences of proteins named here, by UniProt entry; tags and fusion partners are left off. A change or cut given only in a name is not applied to a line headed by its entry. Residues count along the entry.
UniProt Q04206: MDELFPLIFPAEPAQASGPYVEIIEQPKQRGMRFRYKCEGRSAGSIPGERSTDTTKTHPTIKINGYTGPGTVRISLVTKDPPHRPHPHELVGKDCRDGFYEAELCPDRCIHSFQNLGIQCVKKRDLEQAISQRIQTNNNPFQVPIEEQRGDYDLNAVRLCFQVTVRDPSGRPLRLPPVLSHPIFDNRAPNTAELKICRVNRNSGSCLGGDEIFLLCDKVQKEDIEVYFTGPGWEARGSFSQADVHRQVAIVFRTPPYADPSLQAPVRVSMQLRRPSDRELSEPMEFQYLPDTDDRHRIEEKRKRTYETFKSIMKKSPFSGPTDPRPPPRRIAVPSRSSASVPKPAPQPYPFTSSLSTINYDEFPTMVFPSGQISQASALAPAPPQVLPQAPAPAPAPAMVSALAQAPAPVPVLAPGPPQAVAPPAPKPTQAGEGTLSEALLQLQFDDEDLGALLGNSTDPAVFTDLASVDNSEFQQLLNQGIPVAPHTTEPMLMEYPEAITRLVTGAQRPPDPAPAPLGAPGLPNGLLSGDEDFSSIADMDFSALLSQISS
p65^R198* mutant (GFP-p65_R198*): residues 1-197 of Q04206
UniProt P19838, residues 1-433: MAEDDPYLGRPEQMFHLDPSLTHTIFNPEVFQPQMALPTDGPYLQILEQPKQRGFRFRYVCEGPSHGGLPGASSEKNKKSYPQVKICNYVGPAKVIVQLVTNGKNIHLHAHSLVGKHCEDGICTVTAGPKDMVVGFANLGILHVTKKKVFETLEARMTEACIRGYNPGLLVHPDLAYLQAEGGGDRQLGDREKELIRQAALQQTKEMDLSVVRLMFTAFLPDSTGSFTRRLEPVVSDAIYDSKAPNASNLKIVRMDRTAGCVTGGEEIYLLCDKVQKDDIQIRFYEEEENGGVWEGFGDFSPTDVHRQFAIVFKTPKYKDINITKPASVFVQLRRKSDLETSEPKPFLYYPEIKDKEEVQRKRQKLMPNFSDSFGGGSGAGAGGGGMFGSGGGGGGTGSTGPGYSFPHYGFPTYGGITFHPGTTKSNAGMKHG

Columns and labels:
[1] = biological target: WT p65 (RelA) (human) (UniProt Q04206); assay: co-IP; HEK293T cells lysed in RIPA buffer with protease and phosphatase inhibitors and DNase I; lysates incubated with G-agarose beads 1.5 h at 4°C, 3 washes with ice-cold PBS, eluted in SDS loading buffer, Western blot; bait and precipitating antibody not stated
[2] = biological target: p50 (NF-κB1) (human) (UniProt P19838); assay: as above

Substance: p65^R198* mutant (GFP-p65_R198*) (from UniProt Q04206-1 1-197) (domain or fragment)
- binding [1]: no binding
- binding [2]: no binding
